PubChem BioAssay AID624291 (National Center for Advancing Translational Sciences (NCATS), 2012)
Among all 350,000 compounds or so, about 220 (0.063%) were called active. This list was built around the results that the source calls inconclusive (neither active nor inactive); the mix of calls is not that of the screen. Calls come from the whole dose curve; as a rule, active = well fitted activation curve with a large enough effect; inconclusive = small, poorly fitted or top-dose-only effect; inactive = no such curve, though single readings can be large or run the other way. Potencies beside an inconclusive call are fits to weak or partial responses and may not hold up.

Assay: qHTS for Activators of Integrin-Mediated Alleviation for Muscular Dystrophy; note: nearly all actives have a fitted effect of over 60% in size;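 for activation: 100% = response of the positive control SU9516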
Conditions: alpha7betagal myoblasts, beta-gal FDG fluorescence, 48 h; activation: at 38.3 µM (top of the series)
Outline: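 alpha7betagal+/- myoblasts (passage 13, 250/well) treated 48 h at 37C with compounds at 1:260 dilution of DMSO stock. Lysed, then beta-galactosidase activity read as FDG fluorescence (ex 480/em 540) after 30 min, with pre-read for autofluorescence.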
Potency is the fitted concentration of half-maximal effect.

| Structure (SMILES) | Potency | activation |
| --- | --- | --- |
| Cc1ccc(C(=O)Nc2ccccc2C(=O)O)cc1S(=O)(=O)NCc1ccccc1 | inactive | – |
| c1ccc(OCc2noc(CN3CC[C@@H]4CCCC[C@H]4C3)n2)cc1 | inconclusive: 28.2 µM [activator, partial curve, poor fit] | – |
| Cc1ccc(-c2cccc(NC(=O)C3C(C(=O)O)[C@@H]4C=C[C@H]3C4)c2)o1 (stereo not given in full) | inactive | – |
| CC(=O)Nc1ccc(Nc2nc(-c3ccccc3)nc3ccccc23)cc1 | inactive | – |
| O=C(CCc1ccccc1)NC(=S)NCc1ccco1 | inconclusive: 5.62 µM [activator, full curve, poor fit] | – |
| CC(=O)Nc1c2c(nn1-c1ccc(C)cc1)CSC2 | inconclusive: 0.501 µM [activator, full curve, poor fit] | – |
| CCN(CC)C(=O)C(=O)c1cn(CC(=O)NCC2CCCO2)c2ccccc12 (stereo not given) | inactive | – |
| CC(=O)c1cccc(OCCN2C(=O)NC(C)(C)C2=O)c1 | – | inactive: -5.23% [at 7.66 µM] |
| COc1ccccc1-n1c(-c2ccc(NS(C)(=O)=O)cc2)n[nH]c1=S | inactive | – |
| Cc1ccc(SCC(=O)NCCCc2ccccc2)cc1 | inconclusive: 14.1 µM [activator, single point] | – |
| COc1ccc(CC(NC(C)=O)C(=O)NC2CCN(C(=O)C3CCCCC3)CC2)c(OC)c1 (stereo not given) | inconclusive: 28.2 µM [activator, single point] | – |
| COc1ccc(-c2cc(Cl)cc3c(=O)c4ccccc4n(C)c23)cc1F | inactive | – |
| O=C(CCCN1C(=O)c2cccnc2C1=O)Nc1ccc(F)cc1Cl | inconclusive: 28.2 µM [activator, single point] | – |
| COc1ccc(CCNC(=O)COC(=O)c2ccc(S(=O)(=O)N3CCCC3)cc2)cc1OC | inconclusive: 28.2 µM [activator, partial curve, poor fit] | – |
| Cc1cccc(CCNC(=O)CCS(=O)(=O)c2cc3c(cc2Cl)NC(=O)CO3)c1 | inconclusive: 3.16 µM [activator, single point] | – |
| O=S(=O)(Cc1ccc(Cl)cc1)CC(O)COCc1ccccc1 (stereo not given) | – | inconclusive: -9.43% [activator] |
| CC(=C/c1ccccc1)/C=N/NC(=O)c1nnn(-c2nonc2N)c1CN1CCC(C)CC1 | inconclusive: 5.62 µM [activator, partial curve, poor fit] | – |
| CN(C)c1ccc(C=C2C=Cc3ccccc32)cc1 | inactive | – |
| COCCNC(=S)N(CCc1c(C)[nH]c2ccc(C)cc12)Cc1cccnc1 | inconclusive: 28.2 µM [activator, single point] | – |
| Cc1ccc(NC(=S)Nc2cccc3cnccc23)cc1 | inactive | – |
| O=C(NCC1CCCO1)c1ccc(CNS(=O)(=O)c2ccc(F)c(Cl)c2)cc1 (stereo not given) | inconclusive: 0.316 µM [activator, full curve, poor fit] | – |
| Cc1cc(O)c2/c(=N\N)c(-c3csc(C)n3)coc2c1 | inconclusive: 3.16 µM [activator, single point] | – |
| COc1ccc(OC)c(NC(=O)CCc2nnc3ccc(N4CCC(C)CC4)nn23)c1 | inconclusive: 11.2 µM [activator, single point] | – |
| O=C(CSc1ccccc1)N1CCc2ccccc21 | inactive | – |

| Structure (SMILES) | Potency | activation |
| --- | --- | --- |
| COc1ccc(N2C(=O)CSC2c2ccccc2)cc1 (stereo not given) | inconclusive: 22.4 µM [activator, single point] | – |
| O=C(COC(=O)c1cc([N+](=O)[O-])ccc1N1CCOCC1)Nc1cccc(F)c1 | inconclusive: 3.98 µM [activator, single point] | – |
| CC1(C)CC(=O)C2=C(C1)OC(N)=C(C#N)C2c1cc2c(cc1[N+](=O)[O-])OCO2 (stereo not given) | inactive | – |
| Cc1c(NC(=O)Oc2ccccc2)sc(=S)n1C | inconclusive: 28.2 µM [activator, single point] | – |
| Cn1c2ccccc2c2ncn(Cc3ccc(F)cc3)c(=O)c21 | inconclusive: 1.78 µM [activator, partial curve, poor fit] | – |
| CCN(CCNC(=O)C1CCN(Cc2nc(-c3ccc(Cl)cc3)oc2C)CC1)c1ccccc1 | inactive | – |
| Cc1ccccc1Nc1ncnc2c1cnn2Cc1ccccc1 | inconclusive: 3.55 µM [activator, full curve, poor fit] | – |
| Cc1cc(NC(=O)COC(=O)CC2CCCC2)c([N+](=O)[O-])cc1C | inconclusive: 2.82 µM [activator, single point] | – |
| Cc1cc(C(=O)N2CCN(c3ccc([N+](=O)[O-])cc3)CC2)co1 | inconclusive: 1.12 µM [activator, single point] | – |
| COc1ccc2nc(SCC(=O)Nc3cc(C)on3)c(C#N)cc2c1 | inconclusive: 14.1 µM [activator, single point] | – |
| c1ccc(-c2cc3c(N4CCOCC4)ncnc3s2)cc1 | inactive | – |
| O=[N+]([O-])c1ccccc1/C=C/CN1CCCCC1CO (stereo not given) | inactive | – |
| O=C(Nc1ccc2nc(-c3cccs3)c(-c3cccs3)nc2c1)N1CCOCC1 | inconclusive: 4.47 µM [activator, single point] | – |
| O=C(COC(=O)c1c(Cl)ccc(Cl)c1Cl)NC(=O)NCc1ccccc1 | inconclusive: 3.55 µM [activator, full curve] | – |
| CCc1ccc(NC(=S)NC(=O)c2c(-c3ccccc3Cl)noc2C)cc1 | inactive | – |
| CS(=O)(=O)N(CC(=O)Nc1ccccc1Sc1ccccc1)c1ccc(F)cc1 | inconclusive: 28.2 µM [activator, single point] | – |
| Nc1nc(CSC(=S)N2CCCCC2)nc(Nc2ccccc2)n1 | inactive | – |
| Cc1cc(C)c(C)c(SCC(=O)Nc2oc(C)c3c(C)n[nH]c(=O)c23)c1C | inactive | – |
| CC1CCCCN1S(=O)(=O)c1ccc([N+](=O)[O-])cc1 (stereo not given) | inconclusive: 0.501 µM [activator, full curve, poor fit] | – |
| CCN(CC(=O)NCc1cccs1)CC(=O)Nc1ccccc1C | inconclusive: 5.01 µM [activator, single point] | – |
| COc1ccc(-c2c(C#N)cnc(C)c2C)c(O)c1OC | inactive | – |
| CC(C)C1Nc2c(O)cc(Cl)c([N+](=O)[O-])c2C2C=CCC21 (stereo not given) | inconclusive: 5.62 µM [activator, partial curve, poor fit] | – |
| O=C(Nc1ccccc1C(=O)N1CCCCC1)c1cc(F)c(F)cc1Cl | inconclusive: 5.01 µM [activator, single point] | – |
| CC1(C)CC(=O)C(C2=NC3(CCCCCC3)Cc3ccccc32)=C(O)C1 | inconclusive: 5.01 µM [activator, single point] | – |

| Structure (SMILES) | Potency | activation |
| --- | --- | --- |
| N#Cc1ccccc1NS(=O)(=O)c1cc2c3c(c1)CCC(=O)N3CCC2 | inconclusive: 28.2 µM [activator, single point] | – |
| Cc1cc(NC(=O)CC(C)C)c(=O)n(Cc2c(F)cccc2Cl)c1 | inconclusive: 5.01 µM [activator, single point] | – |
| CSC1SCC2C(=O)N(C)C(C(C)C)C(=O)OCC(NC(=O)c3cnc4ccccc4n3)C(=O)NC(C)C(=O)N(C)C1C(=O)N(C)C(C(C)C)C(=O)OCC(NC(=O)c1cnc3ccccc3n1)C(=O)NC(C)C(=O)N2C (stereo not given) | – | inconclusive: -56.1% [activator] |
| COc1ccc(S(=O)(=O)Nc2ccc(S(=O)(=O)N3CCCCC3)cc2)cc1 | inconclusive: 1.26 µM [activator, partial curve, poor fit] | – |
| Cc1cnc(C(=O)OCc2ccc(Br)cc2F)cn1 | inconclusive: 3.16 µM [activator, partial curve, poor fit] | – |
| O=C1NC(=O)c2cc3ccccc3cc21 | inconclusive: 3.16 µM [activator, single point] | – |
| CCN(CC)c1ccc(C=Nc2ccc(OC)c(S(=O)(=O)N3CCOCC3)c2)c(O)c1 | inconclusive: 5.01 µM [activator, single point] | – |
| Cc1nc(N2CCN(S(=O)(=O)c3ccccc3)CC2)c2c3c(sc2n1)CC(C)CC3 (stereo not given) | inactive | – |
| c1ccc(COc2cccc(CN3CCN(c4ccccn4)CC3)c2)cc1 | inactive | – |
| CCN(CC)c1ccc2cc(S(=O)(=O)c3ccc(Cl)cc3)c(=O)oc2c1 | inactive | – |
| COc1ccc(CCc2ccc3ccccc3n2)cc1 | inactive | – |
| CNc1c(NS(=O)(=O)c2ccc3c(c2)CCCC3)c(=O)oc2ccccc12 | – | inconclusive: -14.8% [activator] |
| Cc1ccc(C)c(NC(=S)/C(=C(\[O-])c2ccc(OC(F)F)cc2)[n+]2ccccc2)c1 | inconclusive: 14.1 µM [activator, partial curve, poor fit] | – |
| Brc1cccc(OCCCCN2CCCCC2)c1 | inconclusive: 14.1 µM [activator, single point] | – |
| O=C(CO/N=C/c1ccccc1OC(F)F)NCc1ccco1 | inconclusive: 10 µM [activator, single point] | – |
| Cc1ccc(NC(=O)CSc2ncccn2)c([N+](=O)[O-])c1 | inactive | – |
| COc1ccc(-c2cc3cc(OC)c(OC)cc3c(C)n2)cc1 | inconclusive: 2.24 µM [activator, full curve] | – |
| O=C(CN1C(=O)CS/C1=C\c1nc(-c2ccc(Cl)cc2)cs1)Nc1cccnc1Cl | inactive | – |
| COc1ccc(CNC(=S)N/N=C/c2ccc(OC)c(OC)c2)cc1 | inactive | – |
| COCCCNC(=O)c1cc(-c2cccnc2)nc2ccc(S(=O)(=O)N3CCCCCC3)cc12 | inconclusive: 3.16 µM [activator, single point] | – |
| CCOC(=O)C1(Cc2cccc(Cl)c2)CCCN(C(=O)CCSC)C1 (stereo not given) | inconclusive: 0.447 µM [activator, full curve, poor fit] | – |
| Cc1cccc2c1ncc1c(=O)n(-c3ccccc3)[nH]c12 | inconclusive: 28.2 µM [activator, single point] | – |

Reformatted with tabs: part of the list above.
Structure (SMILES)	Potency	activation
O=C1NC(=O)c2cc3ccccc3cc21	inconclusive: 3.16 µM [activator, single point]	–
CCN(CC)c1ccc2cc(S(=O)(=O)c3ccc(Cl)cc3)c(=O)oc2c1	inactive	–
Cc1ccc(NC(=O)CSc2ncccn2)c([N+](=O)[O-])c1	inactive	–
